Results taken from publication PMC9403797, “Back From the Dead: The Atypical Kinase Activity of a Pseudokinase Regulator of Cation Fluxes During Inducible Immunity” (Frontiers in Plant Science, 2022).
Results are given in words; binding and its absence hold for the method and conditions named. Some entries that bind do so weakly or less than the wild type. Sequences can lack the tags named with a protein.

Chains of the proteins cited; added tags and fusions are not shown. Residues count along the entry.
UniProt Q9LK35, residues 23-855: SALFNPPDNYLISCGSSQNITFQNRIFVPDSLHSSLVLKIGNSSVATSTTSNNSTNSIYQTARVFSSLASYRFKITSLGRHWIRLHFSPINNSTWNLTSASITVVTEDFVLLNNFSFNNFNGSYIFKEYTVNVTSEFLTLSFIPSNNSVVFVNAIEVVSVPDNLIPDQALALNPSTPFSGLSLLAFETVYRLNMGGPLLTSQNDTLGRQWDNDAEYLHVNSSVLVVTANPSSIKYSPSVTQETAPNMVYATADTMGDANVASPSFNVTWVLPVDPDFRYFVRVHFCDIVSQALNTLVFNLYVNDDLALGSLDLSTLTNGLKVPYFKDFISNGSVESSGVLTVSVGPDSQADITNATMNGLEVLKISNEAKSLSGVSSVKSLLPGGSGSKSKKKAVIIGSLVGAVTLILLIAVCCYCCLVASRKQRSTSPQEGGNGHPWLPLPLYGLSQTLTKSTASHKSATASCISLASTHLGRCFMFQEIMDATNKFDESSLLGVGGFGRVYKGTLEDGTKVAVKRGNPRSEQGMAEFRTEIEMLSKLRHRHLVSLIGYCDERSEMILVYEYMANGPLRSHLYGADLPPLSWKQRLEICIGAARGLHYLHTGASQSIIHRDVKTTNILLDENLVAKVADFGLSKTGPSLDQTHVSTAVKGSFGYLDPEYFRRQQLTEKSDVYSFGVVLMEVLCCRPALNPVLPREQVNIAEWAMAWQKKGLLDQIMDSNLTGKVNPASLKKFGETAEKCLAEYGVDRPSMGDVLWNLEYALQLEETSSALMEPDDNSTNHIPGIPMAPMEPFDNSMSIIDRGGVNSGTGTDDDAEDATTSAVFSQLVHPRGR

How the values were obtained:
Experiment in all cases: peptide or protein array; functional protein microarrays (AtPMA-5000 and AtPMA-10000, about 15,000 Arabidopsis proteins) probed with 150 ul purified ILK1-V5 in solution for 1.5 h with 1% BSA, 5 mM MgCl2 and MnCl2; detected with Cy5-conjugated anti-V5 antibody; three probe arrays against two control arrays without probe; one-sided t-test, 5% significance, FDR; both purified
[1] = target: T1, STP1 sugar transporter (Arabidopsis) (UniProt P23586)
T1 sequence: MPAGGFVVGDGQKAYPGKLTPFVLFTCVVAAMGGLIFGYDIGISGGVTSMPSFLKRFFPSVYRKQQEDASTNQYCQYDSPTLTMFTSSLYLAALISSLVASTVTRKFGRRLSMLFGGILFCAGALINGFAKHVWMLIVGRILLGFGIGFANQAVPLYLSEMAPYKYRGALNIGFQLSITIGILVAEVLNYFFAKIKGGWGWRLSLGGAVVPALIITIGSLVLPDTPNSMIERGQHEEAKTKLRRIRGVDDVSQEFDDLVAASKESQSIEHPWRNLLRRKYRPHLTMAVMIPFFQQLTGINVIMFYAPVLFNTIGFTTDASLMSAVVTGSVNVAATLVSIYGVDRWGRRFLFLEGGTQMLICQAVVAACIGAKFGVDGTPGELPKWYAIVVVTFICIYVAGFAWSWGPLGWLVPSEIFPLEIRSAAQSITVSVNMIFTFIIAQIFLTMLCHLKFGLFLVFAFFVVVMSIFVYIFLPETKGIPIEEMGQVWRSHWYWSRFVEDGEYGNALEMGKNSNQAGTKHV

[2] = target: T2, MEKK1 immune signaling kinase (Arabidopsis) (UniProt Q39008)
T2 sequence: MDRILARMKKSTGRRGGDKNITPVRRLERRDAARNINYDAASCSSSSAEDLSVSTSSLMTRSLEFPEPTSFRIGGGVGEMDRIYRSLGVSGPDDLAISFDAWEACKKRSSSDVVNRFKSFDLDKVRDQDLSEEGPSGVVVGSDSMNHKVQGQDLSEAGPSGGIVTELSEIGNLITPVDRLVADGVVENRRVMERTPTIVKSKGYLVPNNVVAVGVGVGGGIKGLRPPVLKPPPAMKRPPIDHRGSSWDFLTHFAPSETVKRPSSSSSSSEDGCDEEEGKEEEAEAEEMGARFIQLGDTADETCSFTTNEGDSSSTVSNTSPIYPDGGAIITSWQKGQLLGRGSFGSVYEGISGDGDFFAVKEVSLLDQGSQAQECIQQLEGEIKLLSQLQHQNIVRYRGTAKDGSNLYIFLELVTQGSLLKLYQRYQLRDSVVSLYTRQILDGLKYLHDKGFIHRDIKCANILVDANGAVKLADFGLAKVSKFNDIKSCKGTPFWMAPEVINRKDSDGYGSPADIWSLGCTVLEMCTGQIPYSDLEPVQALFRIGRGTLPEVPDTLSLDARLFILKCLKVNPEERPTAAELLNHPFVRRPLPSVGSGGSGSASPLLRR

[3] = target: T3, MEKK3 (Arabidopsis) (UniProt Q9M0T3)
T3 sequence: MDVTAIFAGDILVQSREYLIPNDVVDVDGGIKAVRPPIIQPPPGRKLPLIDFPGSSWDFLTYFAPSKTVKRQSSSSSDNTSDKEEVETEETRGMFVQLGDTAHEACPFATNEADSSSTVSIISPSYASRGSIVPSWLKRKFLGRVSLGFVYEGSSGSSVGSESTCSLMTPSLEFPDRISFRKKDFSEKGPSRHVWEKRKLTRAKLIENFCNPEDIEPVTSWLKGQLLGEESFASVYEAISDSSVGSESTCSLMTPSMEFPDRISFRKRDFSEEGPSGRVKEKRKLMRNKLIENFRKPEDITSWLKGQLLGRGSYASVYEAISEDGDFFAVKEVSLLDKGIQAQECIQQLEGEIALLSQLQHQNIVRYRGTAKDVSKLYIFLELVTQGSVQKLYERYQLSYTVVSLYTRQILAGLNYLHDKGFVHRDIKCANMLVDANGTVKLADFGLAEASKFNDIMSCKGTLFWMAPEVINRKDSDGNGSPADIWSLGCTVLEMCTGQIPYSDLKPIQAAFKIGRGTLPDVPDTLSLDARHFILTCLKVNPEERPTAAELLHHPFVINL

[4] = target: THE1 receptor kinase (Arabidopsis) (UniProt Q9LK35)

B1: ILK1-V5 (integrin-linked kinase 1, Arabidopsis) (enzyme, UniProt F4IS56 1-479, looked up)
chain: MENITAQLKRGISRQFSTGSIRRTLSRQFTRQSSLDPRRTNMRFSFGRQSSLDPIRRSPDSSKSDDEPHMSVPENLDSTMQLLFMASKGDVRGIEELLDEGIDVNSIDLDGRTALHIAACEGHLGVVKALLSRRANIDARDRWGSTAAADAKYYGNLDVYNLLKARGAKVPKTRKTPMTVSNPREVPEYELNPLEVQVRKSDGISKGAYQVAKWNGTRVSVKILDKDSYSDPERINAFRHELTLLEKVRHPNVIQFVGAVTQNIPMMIVVEYNPKGDLSVYLQKKGRLSPSKALRFALDIARGMNYLHECKPDPIIHCDLKPKNILLDRGGQLKISGFGMIRLSKISQDKAKVANHKAHIDLSNYYIAPEVYKDEIFDLRVDAHSFGVILYEITEGVPVFHPRPPEEVARMMCLEGKRPVFKTKSRSYPPDIKELIEKCWHPEAGIRPTFSEIIIRLDKIVANCSKQGWWKDTFKFPWK
notes: ILK1, integrin-linked kinase 1, a pseudokinase of the Raf-like MAP3K family, Arabidopsis; also called purified ILK1-V5 protein; source: purified as described previously (Brauer et al., 2014, 2016); purity validated by mass spectrometry
binding [1]: no binding | binding [2]: no binding | binding [3]: binds | binding [4]: no binding
